For experiment [1], the target named is Myc-tagged human WT PINK1 (PTEN-induced kinase 1) (human) (UniProt Q9BXM7). The experiment can be described thus: co-IP; HEK293 cells co-transfected for 24 h with PINK1-Myc and one FLAG-FBW7 isoform; total lysates (50 mM Tris pH 7.5, 150 mM NaCl, 1.0% Nonidet P-40, 10% glycerol) immunoprecipitated with anti-PINK1 antibody overnight at 4 °C, then immunoblotted. For orientation: A western blot detects proteins with antibodies after separation by electrophoresis.

Sequences of proteins named here, by UniProt entry; tags and fusion partners are left off. A change or cut given only in a name is not applied to a line headed by its entry. A line that says so, or that is headed by a name, gives the form on record, which may keep a tag or linker. Residues count along the entry.
UniProt Q9BXM7, residues 78-581: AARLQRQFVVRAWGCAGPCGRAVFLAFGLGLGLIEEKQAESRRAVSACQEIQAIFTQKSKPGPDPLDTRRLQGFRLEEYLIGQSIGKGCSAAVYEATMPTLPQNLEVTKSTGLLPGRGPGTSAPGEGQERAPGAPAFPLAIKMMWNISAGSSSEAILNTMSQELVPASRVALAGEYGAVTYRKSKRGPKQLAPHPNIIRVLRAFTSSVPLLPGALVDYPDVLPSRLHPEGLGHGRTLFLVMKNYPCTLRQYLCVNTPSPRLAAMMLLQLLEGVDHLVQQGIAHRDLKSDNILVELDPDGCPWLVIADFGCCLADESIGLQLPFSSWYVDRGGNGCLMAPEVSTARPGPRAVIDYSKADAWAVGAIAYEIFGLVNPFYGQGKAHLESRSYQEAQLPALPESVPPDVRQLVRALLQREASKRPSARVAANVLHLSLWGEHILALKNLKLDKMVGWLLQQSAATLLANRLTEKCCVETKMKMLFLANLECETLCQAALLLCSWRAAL
FLAG-tagged FBW7γ (F-box and WD repeat domain-containing 7, gamma isoform) (Q969H0-4, form named): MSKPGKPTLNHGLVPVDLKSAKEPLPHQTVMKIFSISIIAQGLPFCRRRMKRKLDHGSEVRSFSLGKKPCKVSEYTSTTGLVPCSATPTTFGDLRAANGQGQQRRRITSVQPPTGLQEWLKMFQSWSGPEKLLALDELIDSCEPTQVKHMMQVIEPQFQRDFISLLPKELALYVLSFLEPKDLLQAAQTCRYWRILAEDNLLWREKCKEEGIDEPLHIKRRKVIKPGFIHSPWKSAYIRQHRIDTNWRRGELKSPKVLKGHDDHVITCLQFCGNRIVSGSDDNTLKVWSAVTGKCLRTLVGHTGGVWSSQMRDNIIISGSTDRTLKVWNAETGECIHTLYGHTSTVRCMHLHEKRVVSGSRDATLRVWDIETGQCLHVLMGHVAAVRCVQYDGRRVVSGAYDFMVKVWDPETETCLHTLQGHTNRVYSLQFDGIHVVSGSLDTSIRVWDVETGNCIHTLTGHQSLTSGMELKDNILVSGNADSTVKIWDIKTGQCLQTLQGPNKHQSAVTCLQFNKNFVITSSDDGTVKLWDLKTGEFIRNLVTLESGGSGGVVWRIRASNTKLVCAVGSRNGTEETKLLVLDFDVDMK
FLAG-tagged FBW7β (F-box and WD repeat domain-containing 7, beta isoform), expressed in HEK293 (Q969H0-2, form named): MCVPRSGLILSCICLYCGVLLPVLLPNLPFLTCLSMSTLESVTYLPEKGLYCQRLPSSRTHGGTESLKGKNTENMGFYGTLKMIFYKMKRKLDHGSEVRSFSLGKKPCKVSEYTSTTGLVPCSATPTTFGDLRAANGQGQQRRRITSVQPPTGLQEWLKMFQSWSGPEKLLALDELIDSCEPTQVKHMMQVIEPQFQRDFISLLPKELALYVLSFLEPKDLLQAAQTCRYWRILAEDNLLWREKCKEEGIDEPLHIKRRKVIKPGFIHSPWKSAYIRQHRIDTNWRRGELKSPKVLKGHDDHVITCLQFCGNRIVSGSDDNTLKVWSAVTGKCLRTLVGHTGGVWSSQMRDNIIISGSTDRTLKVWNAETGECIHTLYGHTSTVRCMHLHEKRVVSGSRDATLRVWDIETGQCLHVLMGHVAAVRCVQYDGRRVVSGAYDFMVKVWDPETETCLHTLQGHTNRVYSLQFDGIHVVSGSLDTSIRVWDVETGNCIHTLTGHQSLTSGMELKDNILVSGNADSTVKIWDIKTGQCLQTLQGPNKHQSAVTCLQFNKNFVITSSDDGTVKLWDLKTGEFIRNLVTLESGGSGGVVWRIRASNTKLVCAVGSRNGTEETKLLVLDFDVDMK

Experiment [2] has as its target endogenous PINK1 (PTEN-induced kinase 1) of SH-SY5Y cells (human (endogenous in SH-SY5Y)) (UniProt Q9BXM7). The experiment can be described thus: proximity ligation; Duolink PLA kit in SH-SY5Y cells with primary antibodies against endogenous PINK1 and FBW7β.
Experiment [3] shares this target. The experiment can be described thus: co-IP; SH-SY5Y cells transfected with FLAG-FBW7β for 48 h, then 20 μM MG132 for 4 h; lysates immunoprecipitated with anti-PINK1 antibody (endogenous PINK1), preimmune IgG as negative control, then immunoblotted.

This is an account of results in PMC11026729.

No constants are given. Whether binding was seen depends on the method and setting. Binding seen in cells or lysates may run through a third protein. Some binding calls cover weakened binding; strength is not graded here.

Consider “FLAG-tagged FBW7γ (F-box and WD repeat domain-containing 7, gamma isoform) (from UniProt Q969H0-4 1-589)”, for which the binding result in experiment [1] is “binds”. Turning to “endogenous FBW7β of SH-SY5Y cells (from UniProt Q969H0-2 1-627)”, the binding entry in experiment [2] is given as “binds”. In the case of “FLAG-tagged FBW7β, transiently overexpressed in SH-SY5Y cells (from UniProt Q969H0-2 1-627)”, the binding result in experiment [3] was “binds”. Consider “FLAG-tagged FBW7α (F-box and WD repeat domain-containing 7, alpha isoform) (from UniProt Q969H0-1 1-707)”, for which, in experiment [1], the binding entry is given as “binds”. Same read-out and setting: the entry for “FLAG-tagged FBW7β (F-box and WD repeat domain-containing 7, beta isoform), expressed in HEK293 (from UniProt Q969H0-2 1-627)” is “binds”.
